Article PMC6556161
No constants are given. Whether binding was seen depends on the method and setting. Some results given as binding are weak or reduced against the parent protein; the word gives no strength.

Protein sequences, listed by entry. Tags and fused reporters are not part of them.
UniProt P40146: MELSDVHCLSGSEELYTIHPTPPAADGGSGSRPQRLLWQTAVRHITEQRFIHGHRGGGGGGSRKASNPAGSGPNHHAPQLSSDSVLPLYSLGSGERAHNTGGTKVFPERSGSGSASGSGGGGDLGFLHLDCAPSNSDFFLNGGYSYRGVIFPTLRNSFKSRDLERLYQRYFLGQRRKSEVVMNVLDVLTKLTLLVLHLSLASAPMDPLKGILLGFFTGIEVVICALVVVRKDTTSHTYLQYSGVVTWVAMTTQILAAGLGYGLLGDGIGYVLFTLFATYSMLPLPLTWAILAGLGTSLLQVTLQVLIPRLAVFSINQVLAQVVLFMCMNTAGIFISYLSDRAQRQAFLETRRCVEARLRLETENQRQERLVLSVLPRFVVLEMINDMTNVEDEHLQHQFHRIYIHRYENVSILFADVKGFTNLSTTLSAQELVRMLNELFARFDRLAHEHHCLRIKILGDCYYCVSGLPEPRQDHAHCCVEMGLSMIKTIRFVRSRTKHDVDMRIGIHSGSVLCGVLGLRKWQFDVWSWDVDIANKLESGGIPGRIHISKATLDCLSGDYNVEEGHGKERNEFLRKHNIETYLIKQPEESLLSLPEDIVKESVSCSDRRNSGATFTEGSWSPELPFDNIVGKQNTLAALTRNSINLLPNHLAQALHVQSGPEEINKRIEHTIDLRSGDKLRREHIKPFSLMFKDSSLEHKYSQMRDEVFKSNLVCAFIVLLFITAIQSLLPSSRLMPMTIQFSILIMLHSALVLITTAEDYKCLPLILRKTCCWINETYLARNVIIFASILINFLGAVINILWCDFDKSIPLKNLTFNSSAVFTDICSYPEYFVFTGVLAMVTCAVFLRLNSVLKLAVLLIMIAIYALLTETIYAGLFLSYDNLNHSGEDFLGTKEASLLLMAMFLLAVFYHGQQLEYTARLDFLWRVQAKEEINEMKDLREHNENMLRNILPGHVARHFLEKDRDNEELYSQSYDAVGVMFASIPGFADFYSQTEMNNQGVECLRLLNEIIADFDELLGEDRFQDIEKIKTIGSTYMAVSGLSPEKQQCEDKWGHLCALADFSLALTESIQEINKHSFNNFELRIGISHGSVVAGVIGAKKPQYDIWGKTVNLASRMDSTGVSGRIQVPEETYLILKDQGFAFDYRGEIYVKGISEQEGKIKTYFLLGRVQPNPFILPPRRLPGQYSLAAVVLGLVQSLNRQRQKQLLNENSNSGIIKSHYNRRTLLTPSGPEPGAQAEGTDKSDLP

Molecular target: AC8-HA (UniProt P40146)
Assay: SDS-PAGE and immunoblot of cell lysates; HEK293 cells stably expressing AC8-HA treated with BFA for the indicated times, lysed, 7% acrylamide SDS-PAGE, probed for AC8

## AC8-HA (from UniProt P40146 1-1248) (enzyme)
  binding: binds
